Reference: article PMC4432633
No constants are given. Whether binding was seen depends on the method and setting. Binding can be weak; no strength is given. For some assays here: In cells and extracts the contact can be indirect.

How the values were obtained:
[1] = target: MopJ-TAP (Caulobacter crescentus NA1000); experiment: tandem affinity purification; MopJ-TAP from lysate of WT cells (0.5% n-dodecyl-β-D-maltoside), IgG Sepharose, TEV release, calmodulin beads, EGTA elution; eluates immunoblotted with polyclonal antibodies to DivJ
[2] = target: MopJ-GFP (Caulobacter crescentus NA1000); experiment: co-IP; GFP-Trap_A beads (ChromoTek) incubated with cleared lysates of C. crescentus grown with xylose; 10 mM Tris-HCl pH 7.5, 150 mM NaCl, 0.5 mM EDTA, lysis with 0.5% NP40; 1 h or overnight at 4 °C; immunoblot with antibodies to DivJ and GFP

binding [1]: binds
binding [2]: binds
B1: DivJ (enzyme, UniProt Q03228 1-597)
chain: MILPTALKSRLALEFETLPDPFRRPAARAAGLDPAHAWRLGWLAAVCLAAAAALFTADSGGWPVWAALGAGALPALVSLIFTREDERTQSWLLVLWAVGGSLAAVLTGGVGGAMAAWCLAPVAAASTQDQPKRLAEGAALALIGACVAALTQLSGLAPAAPTGPLAFVLGFLALVTTGLGLAAGLLIGRRRQGARDDRYASEIIGLETLLDGLPHLAIAVRGQGQVTAVRGAAPPGVTRADLVNRGLTGAAAPGDRQRLTAAIAQAHREGSASLTFNPALGVERVVALDMHRVAPNQLVGVLRDITVERHREHALDQARIDAEALAAGRARFLANMSHELRTPLNAIMGFSDIMRARMFGPLSDRYAEYAELIHESGGHLLDLINDVLDMSKIEAERFELQRGVFDAREAVQAAMRLLRVQSDTAGVQLRGVLPPGELEVDADRRALKQIVLNLVSNALKFTPRGGQVTVTAHGYDGVLEIVVADTGVGISPEDLERLGRPYEQAGGAEQRARGTGLGLSLVRAFAQLHGGEMVIESRLGAGTTVSVRLPVLLAPMVAATPTPPAAPEAPSAPEPAPTVEEPPPASLGDNVIAFAPR
